Values joined by “and” are separate entries in the source; they are usually repeats but may differ in a detail not shown here. Identical values can stand only once. This is one part of the list. Single wells; the ratio to wells without odorant was worked out here, and repeats agree poorly.
Legend:
Experiment in all cases: odorant receptor activation (CRE luciferase / Renilla) (fold of no-odor wells); higher = more activation
Details in all cases: 100 µM
OR7C2 clone 1292 = system: OR7C2 clone 1292
OR7D2 clone 1405 = system: OR7D2 clone 1405
OR7D4 clone 1298 = system: OR7D4 clone 1298
OR7E24 P242S clone 1314 = system: OR7E24 P242S clone 1314
OR7G1 clone 1295 = system: OR7G1 clone 1295
[1] = system: OR7G2 V263A/F281V clone 1312
OR7G2 clone 1475 = system: OR7G2 clone 1475
OR7G3 clone 1297 = system: OR7G3 clone 1297
OR8A1 clone 1503 = system: OR8A1 clone 1503
OR8B12 clone 1731 = system: OR8B12 clone 1731

Structure (SMILES): CS [methanethiol]
- odorant receptor activation (OR7C2 clone 1292): 1.01
- odorant receptor activation (OR7D2 clone 1405): 0.878
- odorant receptor activation (OR7D4 clone 1298): 0.847
- odorant receptor activation (OR7E24 P242S clone 1314): 0.986
- odorant receptor activation (OR7G1 clone 1295): 1.14
- odorant receptor activation [1]: 0.889
- odorant receptor activation (OR7G2 clone 1475): 1.11
- odorant receptor activation (OR7G3 clone 1297): 0.932
- odorant receptor activation (OR8A1 clone 1503): 0.903
- odorant receptor activation (OR8B12 clone 1731): 0.864

Structure (SMILES): CCC(C)=O [2-butanone]
- odorant receptor activation (OR7C2 clone 1292): 0.843
- odorant receptor activation (OR7D2 clone 1405): 0.694
- odorant receptor activation (OR7D4 clone 1298): 0.882
- odorant receptor activation (OR7E24 P242S clone 1314): 0.786
- odorant receptor activation (OR7G1 clone 1295): 1.28
- odorant receptor activation [1]: 0.981
- odorant receptor activation (OR7G2 clone 1475): 1.02
- odorant receptor activation (OR7G3 clone 1297): 0.521
- odorant receptor activation (OR8A1 clone 1503): 1.02
- odorant receptor activation (OR8B12 clone 1731): 0.9

Structure (SMILES): CCOc1cc(C=O)ccc1O [ethyl vanillin]
- odorant receptor activation (OR7C2 clone 1292): 0.606 and 0.865
- odorant receptor activation (OR7D2 clone 1405): 1.28 and 1.14
- odorant receptor activation (OR7D4 clone 1298): 2.52 and 0.902
- odorant receptor activation (OR7E24 P242S clone 1314): 1.02 and 1.31
- odorant receptor activation (OR7G1 clone 1295): 0.674 and 1.23
- odorant receptor activation [1]: 0.436 and 0.818
- odorant receptor activation (OR7G2 clone 1475): 1.31 and 2.05 and 0.954
- odorant receptor activation (OR7G3 clone 1297): 1.03 and 1.02
- odorant receptor activation (OR8A1 clone 1503): 1.1 and 1.75 and 1.53
- odorant receptor activation (OR8B12 clone 1731): 0.855

Structure (SMILES): CCCCOC(C)=O [butyl acetate]
- odorant receptor activation (OR7C2 clone 1292): 0.623
- odorant receptor activation (OR7D2 clone 1405): 0.321
- odorant receptor activation (OR7D4 clone 1298): 0.733
- odorant receptor activation (OR7E24 P242S clone 1314): 0.743
- odorant receptor activation (OR7G1 clone 1295): 0.783
- odorant receptor activation [1]: 0.745
- odorant receptor activation (OR7G2 clone 1475): 1.31
- odorant receptor activation (OR7G3 clone 1297): 0.756
- odorant receptor activation (OR8A1 clone 1503): 1.17
- odorant receptor activation (OR8B12 clone 1731): 0.788

— the odorant receptor screen of Mainland et al. (2015)
